From paper PMC12000498
These are yes or no findings as the source states them, for the method shown. Binding seen in cells or lysates may run through a third protein. Some entries that bind do so weakly or less than the wild type.

Protein sequences, listed by entry. Tags and fused reporters are not part of them.
UniProt Q9Z2G0: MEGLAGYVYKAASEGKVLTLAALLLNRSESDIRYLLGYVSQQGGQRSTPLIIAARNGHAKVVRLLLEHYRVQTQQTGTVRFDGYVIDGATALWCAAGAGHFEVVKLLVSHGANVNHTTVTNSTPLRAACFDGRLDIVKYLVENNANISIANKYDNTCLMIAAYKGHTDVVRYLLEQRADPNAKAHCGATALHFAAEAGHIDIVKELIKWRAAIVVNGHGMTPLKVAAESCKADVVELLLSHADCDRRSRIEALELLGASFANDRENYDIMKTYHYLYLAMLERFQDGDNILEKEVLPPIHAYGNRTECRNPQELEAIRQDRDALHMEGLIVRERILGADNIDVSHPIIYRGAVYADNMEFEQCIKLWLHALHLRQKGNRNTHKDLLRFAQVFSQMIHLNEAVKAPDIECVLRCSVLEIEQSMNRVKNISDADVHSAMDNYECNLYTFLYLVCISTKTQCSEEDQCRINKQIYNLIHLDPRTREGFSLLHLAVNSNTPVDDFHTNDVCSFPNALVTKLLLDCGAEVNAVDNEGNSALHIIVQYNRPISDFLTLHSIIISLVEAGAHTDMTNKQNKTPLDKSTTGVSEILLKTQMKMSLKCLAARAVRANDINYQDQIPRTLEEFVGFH
UniProt P47806: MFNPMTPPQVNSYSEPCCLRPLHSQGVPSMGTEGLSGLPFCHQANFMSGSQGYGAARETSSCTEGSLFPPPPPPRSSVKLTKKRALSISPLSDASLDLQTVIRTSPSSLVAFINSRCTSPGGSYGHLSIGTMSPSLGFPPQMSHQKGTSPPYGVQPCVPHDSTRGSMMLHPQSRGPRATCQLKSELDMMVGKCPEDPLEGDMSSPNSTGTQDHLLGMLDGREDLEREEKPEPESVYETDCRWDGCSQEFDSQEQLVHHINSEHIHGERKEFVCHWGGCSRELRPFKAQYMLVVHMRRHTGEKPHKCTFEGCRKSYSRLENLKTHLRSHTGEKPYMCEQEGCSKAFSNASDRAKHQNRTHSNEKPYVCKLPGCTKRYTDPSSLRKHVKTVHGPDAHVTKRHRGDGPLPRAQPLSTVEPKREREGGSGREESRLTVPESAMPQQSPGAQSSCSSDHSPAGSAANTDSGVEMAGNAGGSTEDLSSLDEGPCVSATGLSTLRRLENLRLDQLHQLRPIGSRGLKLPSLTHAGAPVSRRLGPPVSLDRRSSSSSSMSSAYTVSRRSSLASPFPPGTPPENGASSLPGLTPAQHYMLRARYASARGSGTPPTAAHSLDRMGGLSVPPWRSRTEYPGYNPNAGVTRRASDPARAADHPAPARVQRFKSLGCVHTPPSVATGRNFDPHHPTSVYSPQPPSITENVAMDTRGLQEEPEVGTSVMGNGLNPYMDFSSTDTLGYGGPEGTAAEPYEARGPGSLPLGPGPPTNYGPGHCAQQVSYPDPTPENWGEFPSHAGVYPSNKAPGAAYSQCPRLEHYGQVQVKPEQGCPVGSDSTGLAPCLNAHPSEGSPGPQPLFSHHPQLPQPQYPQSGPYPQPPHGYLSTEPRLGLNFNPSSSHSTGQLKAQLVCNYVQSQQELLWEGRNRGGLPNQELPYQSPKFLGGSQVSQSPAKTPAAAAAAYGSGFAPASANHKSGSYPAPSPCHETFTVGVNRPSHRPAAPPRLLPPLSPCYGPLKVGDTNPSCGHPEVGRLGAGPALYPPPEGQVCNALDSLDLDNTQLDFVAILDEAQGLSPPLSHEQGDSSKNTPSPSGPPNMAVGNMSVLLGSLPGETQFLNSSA

Molecular target: Fem1b (co-IP assay) (UniProt Q9Z2G0)
Assay: co-IP; co-IP assay of Fem1b and Gli1 (Appendix Fig. S6D); cells, bait and antibodies not shown

In the case of “Gli1 (co-IP assay) (from UniProt P47806 1-1111)”, the binding is reported as “binds”.
